PubChem BioAssay AID1259254 – NCATS, 2017
Screen: 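Genome-wide screen for genes that prevent DNA re-replication in cancer cells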 (primary screen). Cells: human HCT116 colorectal cancer cells. Reagent: single siRNA against human genes. Duration: 3 days. Measurement: 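Nuclei stained with Hoechst and imaged; cell-cycle phase assigned by DNA content; G2 share scaled per plate, non-targeting siRNA 0%, GMNN siRNA 100%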. Reading the numbers: G2 robust z-score: higher = more G2 cells, more excess DNA replication. Call rule: 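An siRNA counts as active if its G2 robust z-score lies at least 5 MADs above the screen median; here such calls match roughly 38% of GMNN control or more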.
The whole screen tested about 59,000 reagents; below is a random part of them. About 1,550 of them (2.6%) were called active. 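G2 share is only a proxy for re-replication; each gene was hit by three separate siRNAs, and active genes were retested.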 Unmarked entries are inactive. The numbers tell different reagents against one gene apart. Further read-outs or replicates are left out here. Not stated in the record: the amount of reagent.

gene symbol | reagent no. | G2 robust z-score
CYP2A6 (cytochrome P450 family 2 subfamily A member 6) | 1 | 0.484
CYP2A6 (cytochrome P450 family 2 subfamily A member 6) | 2 | -0.203
CYP2A6 (cytochrome P450 family 2 subfamily A member 6) | 3 | -1.01
ERO1A (endoplasmic reticulum oxidoreductase 1 alpha) | 1 | 2.17
ERO1A (endoplasmic reticulum oxidoreductase 1 alpha) | 2 | 1.77
ERO1A (endoplasmic reticulum oxidoreductase 1 alpha) | 3 | 0.1
RIC8B (RIC8 guanine nucleotide exchange factor B) | 1 | 0.467
RIC8B (RIC8 guanine nucleotide exchange factor B) | 2 | 0.00729
RIC8B (RIC8 guanine nucleotide exchange factor B) | 3 | -0.729
SARAF (store-operated calcium entry associated regulatory factor) | 1 | -0.19
SARAF (store-operated calcium entry associated regulatory factor) | 2 | 0.715
SARAF (store-operated calcium entry associated regulatory factor) | 3 | -0.492
PRPF38A (pre-mRNA processing factor 38A) | 1 | -0.368
PRPF38A (pre-mRNA processing factor 38A) | 2 | 1.07
PRPF38A (pre-mRNA processing factor 38A) | 3 | -0.011
C1orf220 (chromosome 1 putative open reading frame 220) | 1 | -0.752
C1orf220 (chromosome 1 putative open reading frame 220) | 2 | 0.633
C1orf220 (chromosome 1 putative open reading frame 220) | 3 | 2.95
ZNF892 (zinc finger protein 892) | 1 | -0.43
ZNF892 (zinc finger protein 892) | 2 | 0.288
ZNF892 (zinc finger protein 892) | 3 | -0.335
PYM1 (PYM1 exon junction complex associated factor) | 1 | 0.267
PYM1 (PYM1 exon junction complex associated factor) | 2 | -1.13
PYM1 (PYM1 exon junction complex associated factor) | 3 | -0.85
HKDC1 (hexokinase domain containing 1) | 1 | 0.344
HKDC1 (hexokinase domain containing 1) | 2 | 1.01
HKDC1 (hexokinase domain containing 1) | 3 | 0.613
SYNE4 (spectrin repeat containing nuclear envelope family member 4) | 1 | -1.03
SYNE4 (spectrin repeat containing nuclear envelope family member 4) | 2 | 1.43
SYNE4 (spectrin repeat containing nuclear envelope family member 4) | 3 | -0.679
RMDN3 (regulator of microtubule dynamics 3) | 1 | -0.176
RMDN3 (regulator of microtubule dynamics 3) | 2 | -0.681
RMDN3 (regulator of microtubule dynamics 3) | 3 | 2.24
IER3IP1 (immediate early response 3 interacting protein 1) | 1 | 0.778
IER3IP1 (immediate early response 3 interacting protein 1) | 2 | -0.603
IER3IP1 (immediate early response 3 interacting protein 1) | 3 | 3.68
MC2R (melanocortin 2 receptor) | 1 | 1.1
MC2R (melanocortin 2 receptor) | 2 | -1.6
MC2R (melanocortin 2 receptor) | 3 | 2.28
CD8A (CD8 subunit alpha) | 1 | -0.219
CD8A (CD8 subunit alpha) | 2 | -0.096
CD8A (CD8 subunit alpha) | 3 | -0.526
NDUFV1 (NADH:ubiquinone oxidoreductase core subunit V1) | 1 | -1.71
NDUFV1 (NADH:ubiquinone oxidoreductase core subunit V1) | 2 | -0.294
NDUFV1 (NADH:ubiquinone oxidoreductase core subunit V1) | 3 | -0.612
EYA4 (EYA transcriptional coactivator and phosphatase 4) | 1 | 0.0203
EYA4 (EYA transcriptional coactivator and phosphatase 4) | 2 | 1.13
EYA4 (EYA transcriptional coactivator and phosphatase 4) | 3 | -0.214
GPR68 (G protein-coupled receptor 68) | 1 | -0.269
GPR68 (G protein-coupled receptor 68) | 2 | -1.12
GPR68 (G protein-coupled receptor 68) | 3 | -0.339
OR56A3 (olfactory receptor family 56 subfamily A member 3) | 1 | -0.761
OR56A3 (olfactory receptor family 56 subfamily A member 3) | 2 | 0.394
OR56A3 (olfactory receptor family 56 subfamily A member 3) | 3 | 2.71
UTS2R (urotensin 2 receptor) | 1 | -0.583
UTS2R (urotensin 2 receptor) | 2 | -0.364
UTS2R (urotensin 2 receptor) | 3 | -0.193
PNKP (polynucleotide kinase 3'-phosphatase) | 1 | 4.88
PNKP (polynucleotide kinase 3'-phosphatase) | 2 | -0.297
PNKP (polynucleotide kinase 3'-phosphatase) | 3 | -0.369
FBXO39 (F-box protein 39) | 1 | -0.0778
FBXO39 (F-box protein 39) | 2 | -0.837
FBXO39 (F-box protein 39) | 3 | 0.0665
ARHGEF39 (Rho guanine nucleotide exchange factor 39) | 1 | 0.0678
ARHGEF39 (Rho guanine nucleotide exchange factor 39) | 2 | 0.381
ARHGEF39 (Rho guanine nucleotide exchange factor 39) | 3 | 0.356
NUP85 (nucleoporin 85) | 1 | -1.58
NUP85 (nucleoporin 85) | 2 | -0.0612
NUP85 (nucleoporin 85) | 3 | 9.57 (active)
